From PubChem BioAssay AID493067 (National Center for Advancing Translational Sciences (NCATS), 2011)
Inconclusive results, whose numbers are uncertain, are shown with a selection of clear calls. Where the call is inconclusive, the potency comes from a doubtful curve fit. The source made the active and inactive calls. The call rests on the fitted dose curve; in most records, active means well fitted activation curve with a large enough effect; inconclusive means small, poorly fitted or top-dose-only effect; inactive means flat fitted curve, though single readings scatter.

Test: Confirmation Concentration-Response Assay for qHTS Assay for Epigenetic Modulators
Settings: murine C127i LDR cells, GFP reporter derepression, 30 h; series mostly up to 46.1 µM
Text: NIH Molecular Libraries Screening Centers Network [MLSCN] NIH Chemical Genomics Center [NCGC] MLSCN Grant: 1 X01 MH079860-01 Assay Provider: Elisabeth D. Martinez, University of Texas SW Medical Center NCGC Assay Overview: This assay, used for the primary screen, was employed here to confirm actives identified from the Locus Derepression (LDR) assay (PubChem AID 1865). The LDR assay detects the derepression of a GFP reporter that is stably integrated in a region of the genome of murine c127i mammary cells that is presumably silenced. Compounds that derepress or induce this reporter locus are identified by enumerating GFP positive cells using an Acumen Explorer Ex3 (TTP Labtech) laser-scanning microplate cytometer.
NCGC Assay Protocol Summary: Three hundred LDR cells in 5 uL per well were dispensed into black, clear-bottom 1536-well plates. Twenty-three nL compound was transferred to the assay plate and cells were incubated 30 hours at 37 C. Medium was removed, cells were washed two times with PBS, and GFP-positive cells were enumerated as fluorescent objects between the sizes of 20 to 120 um width and depth using an Acumen Explorer Ex3 (TTP Labtech) laser-scanning microplate cytometer. For further details, see Johnson, RL, Huang, W, Jadhav, A, Austin, CP, Inglese, J, Martinez, ED (2008). A quantitative high-throughput screen identifies potential epigenetic modulators of gene expression. Anal Biochem 375: 237-48.

**Q.** With N#CC1=C(N)n2c(s/c(=C\c3cccs3)c2=O)=C(C#N)C1c1cccs1 (stereo not given) as the compound, how does the Potency read?
**A.** The Potency was active: 15.8 µM.

**Q.** For Oc1ccc(Br)cc1C=Nc1ccc2c3c(cccc13)CC2, which Potency is on record?
**A.** Its Potency is “inactive”.

**Q.** Which Potency does the source give for COc1ccc2c(C)cc(SCC(=O)N(C)C3CCS(=O)(=O)C3)nc2c1 (stereo not given) here?
**A.** Its Potency is inconclusive: 20 µM [activator, full curve, poor fit].

**Q.** Which Potency does the source give for O=c1c2ccccc2nc(COc2ccccc2)n1/N=C/c1c[nH]c2ccccc12 here?
**A.** Its Potency is inconclusive: 35.5 µM [activator, single point].

**Q.** For CCCOc1cc(N(CC)CC)ccc1/C=C(/C#N)c1nc2ccc(C)cc2[nH]1, which Potency is on record?
**A.** Its Potency is inconclusive: 3.16 µM [activator, single point].

**Q.** With CC1=NN(c2nc3ccccc3[nH]2)C(=O)C1Cc1ccccc1 (stereo not given) as the compound, how does the Potency read?
**A.** The Potency was inconclusive: 31.6 µM [activator, partial curve].

**Q.** Which Potency does the source give for CN(c1ccccc1)S(=O)(=O)c1nnc(NC(=O)c2ccccc2)s1 here?
**A.** Its Potency is “inactive”.

**Q.** For COc1nc(Nc2nc3ccccc3c(=O)[nH]2)nc2ccc(C)cc12, which Potency is on record?
**A.** The Potency was inconclusive: 3.98 µM [activator, full curve].

**Q.** Which Potency does the source give for CCN(CC)CCCNC(=O)CSc1c2c(nc3cc(Cl)ccc13)CCCC2 here?
**A.** Its Potency is inconclusive: 8.91 µM [activator, single point].

**Q.** For COc1ccc(Nc2nc3c(S(=O)(=O)c4ccccc4)nnn3c3ccc(Cl)cc23)cc1, which Potency is on record?
**A.** Its Potency is inconclusive: 14.1 µM [activator, single point].

**Q.** Which Potency does the source give for O=C1CN(c2nc(-c3ccccc3)c3cc(Cl)ccc3n2)c2ccccc2N1 here?
**A.** The Potency was inconclusive: 25.1 µM [activator, partial curve].

**Q.** With O=C(NN1C(=O)c2ccccc2NC1c1ccc([N+](=O)[O-])o1)c1ccc([N+](=O)[O-])cc1 (stereo not given) as the compound, how does the Potency read?
**A.** The Potency was inconclusive: 28.2 µM [activator, partial curve].

**Q.** With N=c1n(CC(=O)c2ccc([N+](=O)[O-])cc2)c2ccccc2n1Cc1ccccc1Cl as the compound, how does the Potency read?
**A.** The Potency was inconclusive: 5.01 µM [activator, partial curve].

**Q.** With COc1ccc2c(C)nc(Nc3nc(-c4ccccc4)cc(=O)[nH]3)nc2c1 as the compound, how does the Potency read?
**A.** The Potency was active: 4.47 µM.

**Q.** For C(=N\Nc1nc(-c2ccccn2)nc2ccccc12)/c1ccccc1, which Potency is on record?
**A.** The Potency was inconclusive: 14.1 µM [activator, partial curve, poor fit].

**Q.** For COc1ccc(OC)c(Nc2nc3nonc3nc2N2CCCC(C)C2)c1 (stereo not given), which Potency is on record?
**A.** The Potency was inconclusive: 14.1 µM [activator, partial curve].

**Q.** With Cc1ccc(C(C)C)c(OCc2ccc(C(=O)N/N=C/c3cccc(O)c3O)cc2)c1 as the compound, how does the Potency read?
**A.** The Potency was inconclusive: 3.98 µM [activator, full curve].

**Q.** For CN(C)S(=O)(=O)c1ccc2c(c1)/C(=C/c1cc3c([nH]1)CCCC3)C(=O)N2, which Potency is on record?
**A.** The Potency was active: 14.1 µM.

**Q.** Which Potency does the source give for C/C=C/c1ccc(OCC(=O)OCC(=O)NC2CC2)c(OC)c1 here?
**A.** Its Potency is inconclusive: 28.2 µM [activator, partial curve].

**Q.** Which Potency does the source give for S=C(Nc1ccccc1)c1ccccn1 here?
**A.** The Potency was active: 15.8 µM.

**Q.** With NC(=S)N/N=C/c1ncc(C(F)(F)F)cc1Cl as the compound, how does the Potency read?
**A.** Its Potency is inconclusive: 8.91 µM [activator, single point].

**Q.** With Cc1ccc(/C=N/NC(=S)Nc2cccc(S(=O)(=O)N(C)C)c2)o1 as the compound, how does the Potency read?
**A.** The Potency was inconclusive: 12.6 µM [activator, partial curve, poor fit].

**Q.** For COc1ccccc1OCC(=O)N/N=C/C=C/c1ccc([N+](=O)[O-])o1, which Potency is on record?
**A.** Its Potency is inconclusive: 12.6 µM [activator, partial curve].

**Q.** With Cc1cc(N2CCN(c3ccc([N+](=O)[O-])c4cccnc34)CC2)c2ccccc2n1 as the compound, how does the Potency read?
**A.** Its Potency is active: 12.6 µM.

**Q.** Which Potency does the source give for Cc1cc(NC(=O)C2CCCN(S(=O)(=O)c3cccc4nonc34)C2)ccc1Br (stereo not given) here?
**A.** Its Potency is inconclusive: 15.8 µM [activator, full curve].

**Q.** With CCCC(=O)N1CCN(c2ccc(NC(=O)c3ccc([N+](=O)[O-])o3)cc2Cl)CC1 as the compound, how does the Potency read?
**A.** Its Potency is inconclusive: 1.58 µM [activator, full curve].

**Q.** For CC(C)C(=O)N1CCN(c2ccc(NC(=O)c3ccc([N+](=O)[O-])o3)cc2Cl)CC1, which Potency is on record?
**A.** Its Potency is inconclusive: 2.24 µM [activator, partial curve].

**Q.** With CCC(=O)N1CCN(c2ccc(NC(=O)c3ccc([N+](=O)[O-])o3)cc2Cl)CC1 as the compound, how does the Potency read?
**A.** The Potency was inconclusive: 1.41 µM [activator, partial curve].

**Q.** Which Potency does the source give for COc1cccc(N2CCN(S(=O)(=O)c3ccc(-n4cnnn4)cc3)CC2)c1 here?
**A.** Its Potency is inconclusive: 11.2 µM [activator, partial curve].

**Q.** With CCOc1ccc(NC(=O)c2nc(S(=O)(=O)Cc3ccccc3F)ncc2Cl)cc1 as the compound, how does the Potency read?
**A.** Its Potency is “inactive”.

**Q.** For CCOC(=O)c1c(NC(=O)CC2Nc3cc(C)c(C)cc3NC2=O)sc(C)c1C (stereo not given), which Potency is on record?
**A.** Its Potency is inconclusive: 10 µM [activator, full curve].

**Q.** Which Potency does the source give for O=C(N/N=C/c1ccccn1)c1cc(-c2ccc(Cl)cc2)nc2ccccc12 here?
**A.** The Potency was inconclusive: 8.91 µM [activator, single point].

**Q.** With CC(=O)N[C@@H](CSC(=O)[C@]1([C@@H](O)C(C)C)NC(=O)[C@H](C)[C@@H]1O)C(=O)O as the compound, how does the Potency read?
**A.** The Potency was inconclusive: 14.1 µM [activator, full curve].

**Q.** For O=C(Cn1c(=O)n(Cc2ccc(F)cc2)c(=O)c2sc3ccccc3c21)Nc1ccc(F)cc1F, which Potency is on record?
**A.** The Potency was inconclusive: 12.6 µM [activator, partial curve, poor fit].

**Q.** For Cc1nc(CSc2nsc(/C=C/N(C)C)c2C#N)cs1, which Potency is on record?
**A.** Its Potency is “inactive”.

**Q.** With CSc1nsc(/C=C/Nc2cccc(Cl)c2)c1C#N as the compound, how does the Potency read?
**A.** Its Potency is inconclusive: 22.4 µM [activator, partial curve].

**Q.** For O=[N+]([O-])/C(C=Nc1ccccc1O)=C\Nc1ccccc1O, which Potency is on record?
**A.** The Potency was inconclusive: 28.2 µM [activator, partial curve].

**Q.** For Oc1c(N=Nc2ccccn2)ccc2ccccc12, which Potency is on record?
**A.** Its Potency is inconclusive: 25.1 µM [activator, single point].

**Q.** With O=C1C=C(Nc2ccc(Cl)cc2)C(=O)N1c1ccc(Cl)cc1 as the compound, how does the Potency read?
**A.** Its Potency is inconclusive: 28.2 µM [activator, partial curve, poor fit].

**Q.** Which Potency does the source give for CCCCOC(=O)Cn1c2ccc(OC)cc2c2nc3ccccc3nc21 here?
**A.** The Potency was inconclusive: 22.4 µM [activator, partial curve, poor fit].
